At least one compound was matched to its structure with a doubt left.
Biological target: T1, rat connexin 26 (Cx26) (Rattus norvegicus, UniProt P21994)
T1 construct: expressed in transfected cells; host or cells: HeLa cell subclone HeLa-Cx26 (human uterocervical squamous carcinoma)
Test: Dye-transfer assay, GJIC through connexin 26 (HeLa-Cx26)
Type: cell-based
Settings: HeLa-Cx26, 20 μM
Protocol: Next, with respect to each oleamide derivative synthesized by the method described above, we studied whether each derivative inhibited connexin 26 (in other words, whether each one inhibited the transfer of a substance from one cell to another through a gap junction formed by the connexin 26). The experimental method was the same as that described in International Publication WO 2004/060398. Each gap junction intercellular communication (GJIC) score of each test substance was evaluated by dye-transfer assay.
In the same manner as in the method described in the above-mentioned publication, human uterocervical squamaous carcinoma cells (HeLa cells) were used for the experiment. More specifically, HeLa cell subclones (HeLa-Cx26 and HeLa-Cx43) were used, and they stably expressed rat connexin 26 (Cx26) and rat connexin 43 (Cx43), respectively. […]
In FIG. 2, since the donor cell indicated with a “*” mark contains both the calcein (green fluorescence) and DiI (red fluorescence), it is shown in yellow in the original drawing. […] With such an assay, the GJIC score of each test substance is evaluated as follows. […]
Such an assay was carried out three times repeatedly. […] Then the average value and standard deviation of the GJIC scores of the respective test substances were calculated. […]

Compound: CCCCCCCC[C@H]1O[C@H]1CCCCCCCC(=O)NCCCN(CCCCN(CCCNC(=O)CCCCCCC[C@@H]1O[C@@H]1CCCCCCCC)C(=O)CCCCCCC[C@@H]1O[C@@H]1CCCCCCCC)C(=O)CCCCCCC[C@@H]1O[C@@H]1CCCCCCCC (relative stereo) [MI-53, N^1-(3-{[8-{(2S*,3R*)-3-Octyl-oxiranyl}-octanoyl]-[4-({8-[(2S*,3R*)-3-octyl-oxiranyl]-octanoyl}-N-{3-[8-{(2S*,3R*)-3-octyl-oxiranyl}-octanoylamino]-propyl}-amino)-butyl]-amino}-propyl)-8-{(2S*,3R*)-3-octyl-oxiranyl}octanamide]
- connexin 26 inhibitory activity as compared to the control by visual observation: found to have a connexin 26 inhibitory activity
